Experimental findings from publication PMC1414084 are described below.

Test in all cases: two-hybrid; mammalian two-hybrid; bait fused to the Gal4 DNA-binding domain (BIND), prey to the VP16 transcriptional activation domain (ACT); luciferase reporter; cultured mammalian cells, 37°C; positive from 3 times the background activity (level 1), the selected set is level 2 (>=5 to <10 times) and level 3 (>=10 times)
In general terms: In a reporter assay the amount or activity of a reporter protein is the signal.

For experiment [1], the target named is PH1120, hypothetical protein (Pyrococcus horikoshii OT3) (UniProt O58847).
Experiment [2] addresses PH0187, hypothetical protein (Pyrococcus horikoshii OT3) (UniProt O57926).
Experiment [3] deals with PH0130, hypothetical protein (Pyrococcus horikoshii OT3) (UniProt O57870).
Experiment [4] has as its target PH0406, hypothetical protein (Pyrococcus horikoshii OT3) (UniProt O58143).
The target of experiment [5] is PH0250, hypothetical protein (Pyrococcus horikoshii OT3) (UniProt O57988).
In experiment [6] the target is PH0540, S-adenosyl-L-homocysteine hydrolase (Pyrococcus horikoshii OT3) (UniProt O58275).
In experiment [7] the target is PH0197, hypothetical protein (Pyrococcus horikoshii OT3) (UniProt O57936).
The target in experiment [8] is PH0690, hypothetical protein (Pyrococcus horikoshii OT3) (UniProt O58422).
In experiment [9] the target is PH1895, hypothetical protein (Pyrococcus horikoshii OT3) (UniProt O59525).
In experiment [10] the target is PH0346, hypothetical protein (Pyrococcus horikoshii OT3) (UniProt O58084).
The target in experiment [11] is PH1528, hypothetical protein (Pyrococcus horikoshii OT3) (UniProt O59197).
For experiment [12], the target named is PHS017, hypothetical protein (Pyrococcus horikoshii OT3) (UniProt O73970).
The target in experiment [13] is PH0223, hypothetical protein (Pyrococcus horikoshii OT3) (UniProt O57962).

These are yes or no findings as the source states them, for the method shown. Some entries that bind do so weakly or less than the wild type.

B1: PH1120, hypothetical protein (protein, UniProt O58847 1-397)
chain: MIEDNMKLKTGIPALDRILGGGFEKGCNIALVGGMDNDHILLTHQLTNAFLSSGKKVLLVELRQDPASLIKWLSQYNINYEEYLEDGDLKILDGFSNLYSPASISGPDVLPNPLDLGITTAIIRDNVSKEKYDILVFDDITSLYALQTDYKAYVRVIVRLTNSIRKLGASSLVAINSDVLSIQDLSMILMPFEYLIEIREGMIRFKRSFSFINVPGVPYVKTNKGIIPIEDVLKDAVSIRDSLVLTSDGVLKLGEGRVQLIGETSERSLIEFVYRFLGPEKGREFLYGWGRHEVEHLEIPKIESVEEIKEILEEAFEVTRSTGGGILRIVEATKDIIIVEGKNLFPHIRNFPYPAHVHYAGYMAKLLEKATGERWEGEEIKCESQTNDKCIFILRRV
In the case of B1, the binding entry in experiment [1] was “binds”.

B2: PH0187, hypothetical protein (protein, UniProt O57926 1-251)
chain: MEEPIEEKIERTVERVPTGIIDELINGGIPRGSVVLVIGDPKAGKSTFLTQFVYNQIKLGVPVIGVLVDISKYEFISNALEFGWEFTPYLDDKIILLDAYTQRLRKAPKFSFEETIVGDLSNTVNLLDAIKDTTLKILSSVKTDGVVGFISSMTPIFFETSKKEIYKFLEDLREFAHRNRQVWVLEMNSGIEEPYVETMVKAIVDGIIELRLVEEGKTLKRYLRIYGMRRTAHRLDWIEYSITSQGIKLIL
As for B2, the binding entry in [2] is reported as “binds”.

B3: PH0130, hypothetical protein (protein, UniProt O57870 1-218)
chain: MMFEKLESPKEFSPFKDLSKKIGGLREGDLVGIVVTDQLSHAYFLHLAVSSFPGFSYYLDLSSRLSMDVLSSLGGDPGRIFFGRVYTMGDIISSIKYVSENSLFVVGSLNALDPRKEDILALKSEISEKTLYGMVLIEEQNLNELNLPGEIRRLLIVPEVFEQILVGRISYYRGKYKLTVTVLRAYPDKLSSLGDHEFTVDEEVKKILFPNREGQQSQ
As for B3, in [3], the binding entry is reported as “binds”.

B4: PH0406, hypothetical protein (protein, UniProt O58143 1-147)
chain: MGKLNRVLNTKWGNIKLEDNTLIKFRVAIVDVHPFEEASPFGVEFGVNITTGISVYPSEESMRELEGKPIAPSKIPPKEGWIQIKIIEKESALEEVEYEDPELGKYKIRVEIEPVMASKNTQIKTPNGEPWYVVRWVPKITWEKIME
In the case of B4, the binding entry in [4] is recorded as “binds”.

B5: PH0250, hypothetical protein (protein, UniProt O57988 1-207)
chain: MQMNSEKFFKLFRVGETVLVEYSGTSRAELLLYYIVNNSKLPIVVDDILDTYYEFYTRLKVAGFDVAPLENVQVIKMGGTKDIGRVIGRLNISKYVISEQEYMEIVSQLKDYPVINPVLGLHKLILLGNTFENINVVKMVSNYVGREERIAFYFVNRNVIEKHSSPILDLLEEVVTSILEITDSGIIIKKSIKDEIAGKIVSPLLNF
B5: the binding result in experiment [5] is “binds”.

B6: PH0540, S-adenosyl-L-homocysteine hydrolase (protein, UniProt O58275 1-421)
chain: MDCGRDYCVKDLSLADEGWKKIDWVSRFMPVLQHIRREFEEKKPFKGVRIAATLHLEMKTAFLLLTLKAGGAEVSAAASNPLSTQDDVVAALAKAGVKVYAIRGESKEQYYEFMHKALDIRPNIIIDDGADMISLVHKERQELLDEIWGGSEETTTGVIRLRAMERDGVLRFSVIAVNDSYMKYLFDNRYGTGQSTWDGVMRATNLLIAGKNVVVVGYGWCGRGIAMRARGLGATVIVVEVDPIKALEARMDGFLVMNMKEAAKIGDIFITATGDIKCIRREHFELMKDGAIMANAGHFDVEIWKPDLEELAVEISNPRPNVTEYKLKDGRRLYLLADGRLVNLVAADGHPAEIMDMSFALQAKAAEYIKDNHGKLEPRVYILPREIDEMVARIKLASMGIEIEELTEEQKKYLESWEHGT
On to B6, for which the binding result in experiment [6] is reported as “binds”.

B7: PH0197, hypothetical protein (protein, UniProt O57936 1-361)
chain: MLTEVCKMGTNKAFFTNEVPEDRYIAAEKISSLKKPATVMIIGDVDTGKTTLTIYLANELISRGFRVSIIDSDVGQKSILPPATISLAFVDTHFSSLEDLTPFAHYFVGTITPSQFFGEMVIGVMKLAELAKKFSDVVLIDTTGMIYGPGVELKRMKIEAIKPDLILALERENELTPIIKGFEDITLKLRVSDKVKEFSRSERKELRREKWKRYFENSRIVTFNVNDILVTGTSMFQGKPIEEGEKNLLERLFKWLILHGRKLGERYFVVKVDTSEGPRVVDKNVVRYFDFSKLSNLLLGLLDKEGFCQGVGILKAINFSEGRLEVLTPVKDISIITEIRFGRIRVREDGEELGLLDREVL
Take B7: the binding result in experiment [7] is listed as “binds”.

B8: PH0690, hypothetical protein (protein, UniProt O58422 1-128)
chain: MREEARLLWEQALEDLKTAEVLIEVKRYYASVFFSQQAAEKALKALYIEVKREFPPKTHSLLRLSNELGIKDEEIIDAVLDLNPEYIVTRYPDAANEVPAKIYNERIAVEHLEKAKKVIEFCRQKLGL
Take B8: the binding result in experiment [8] is reported as “binds”.

B9: PH1895, hypothetical protein (protein, UniProt O59525 1-217)
chain: MESNQTNQLVNKFLISLPEGKILGYVTDINVEVSGDQYYFILRIKTLENISRGEFHPGMFSSEKKIKIKPSDIVNVGPDVIIIGGGKVPPLREIERLGQIVEDYNALVKELEKRENEIKKLKEEKEKLERELEELKKKIRRLEVIEDDFDHLKEQLIKQEGQLEMAREYIKLLEGVRHDIDNIKANIETLLSGYIEDVVRKIVNDELNARGLKKSPI
For the molecule B9, the binding entry in experiment [9] was “binds”.

B10: PH0346, hypothetical protein (protein, UniProt O58084 1-103)
chain: MSRVKLGHHYYYIVTPQDLRDGKYKGKNIVIEGEIKDKPIIEFLPMELPSYRTIFRVSGFKVEFSGTPNVRMGEKVKVYGVFVGDGIIARAIETEGAIYITEE
With B10, the binding result in experiment [10] is “binds”.

B11: PH1528, hypothetical protein (protein, UniProt O59197 1-388)
chain: MEGISKPMERYDSVVFAGMKQDGTIEFIKVYALNEDLAITILDQFLRENNLHPSDFVVIQRGLEDIKGKDIISTRTEEDLSAMLARLGLRLVSNGVLHTRGAEKIYQITAISKSLIERLQGEDKDKVSTIIKEEISIDFSNLKLPEKYMKKLLLLSLMEDTFILNRAELNVPEVIKRAVKGVVSIPRLIERDNIIIKVFDEELHTVQGSYLDRVIITPPVVHWDAHIDELDSFSFQEVEENVYEPPLFVKAMKGFLVLTEPPRDLVVMLLKLKRRGEVKVSLKGRQIRIPLNFTLVVDTKYPERYSGLKFPIRINLPPFDDETFAQMLSMVLGTKVPQDLVAMFPEEYKTFLGVEILSNLWKKLRKRGRKSEIELLKEMATIVTGGII
B11: the binding entry in experiment [11] is “binds”.

B12: PHS017, hypothetical protein (protein, UniProt O73970 1-83)
chain: MKCDSGEKMSEVINVRNLIREIEDIEKRLENIKIELLKLKAQQLEAEEIDDEEADQLIREAEEAYKSGEWLTIEEFRKDVGLD
Turning to B12, in experiment [12], the binding entry is reported as “binds”.

B13: PH0223, hypothetical protein (protein, UniProt O57962 1-190)
chain: MNSMELLIIKERRIDYDGSAIRSHWAYRNFGILGDSLVVFRGKCNVKVEEMVDIEDLRLRKEIKGDDMVHYILELFWHPDILLASSLQKLLIARLVELLWNYGIEASRRGDDIYVNGRKLSISIATVSPVSIKIHIGLNVKTVGVPPGVDAIGLEELGIDPTEFMERSAKALVEEIEKVRKDSLKVRWVT
On to B13, for which, in experiment [13], the binding entry is “binds”.
